These are yes or no findings as the source states them, for the method shown. Sequences can lack the tags named with a protein.
T1: GST-MUS81-EME1 complex (UniProt Q96NY9 1-551; Q96AY2 1-570)
T1 construct: MUS81 subunit of the complex encoded by pGEX-6P-1-MUS81-HisEME1; EME1 subunit of the complex encoded by pGEX-6P-1-MUS81-HisEME1; Plasmid was a gift from Dr. Stephen West and Dr. Curtis Harris; the construct is not described further; source: E. coli Rossetta (DE3) pLysS, purified (Glutathione Sepharose, Heparin, MonoS)
T1 sequence (looked up) 1: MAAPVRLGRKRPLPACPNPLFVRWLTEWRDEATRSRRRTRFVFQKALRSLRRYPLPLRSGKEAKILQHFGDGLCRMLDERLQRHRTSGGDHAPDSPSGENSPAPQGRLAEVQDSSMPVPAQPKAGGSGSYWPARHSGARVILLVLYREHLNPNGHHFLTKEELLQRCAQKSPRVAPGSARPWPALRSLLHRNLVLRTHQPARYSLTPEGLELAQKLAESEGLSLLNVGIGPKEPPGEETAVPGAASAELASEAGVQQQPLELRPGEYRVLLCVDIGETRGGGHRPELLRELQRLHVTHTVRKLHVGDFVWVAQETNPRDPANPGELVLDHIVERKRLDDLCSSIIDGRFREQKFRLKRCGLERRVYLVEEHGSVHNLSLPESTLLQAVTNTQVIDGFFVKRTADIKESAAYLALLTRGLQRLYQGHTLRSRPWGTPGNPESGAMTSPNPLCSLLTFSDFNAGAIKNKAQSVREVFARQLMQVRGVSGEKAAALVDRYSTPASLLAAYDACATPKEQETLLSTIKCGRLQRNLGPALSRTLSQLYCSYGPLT
T1 sequence (looked up) 2: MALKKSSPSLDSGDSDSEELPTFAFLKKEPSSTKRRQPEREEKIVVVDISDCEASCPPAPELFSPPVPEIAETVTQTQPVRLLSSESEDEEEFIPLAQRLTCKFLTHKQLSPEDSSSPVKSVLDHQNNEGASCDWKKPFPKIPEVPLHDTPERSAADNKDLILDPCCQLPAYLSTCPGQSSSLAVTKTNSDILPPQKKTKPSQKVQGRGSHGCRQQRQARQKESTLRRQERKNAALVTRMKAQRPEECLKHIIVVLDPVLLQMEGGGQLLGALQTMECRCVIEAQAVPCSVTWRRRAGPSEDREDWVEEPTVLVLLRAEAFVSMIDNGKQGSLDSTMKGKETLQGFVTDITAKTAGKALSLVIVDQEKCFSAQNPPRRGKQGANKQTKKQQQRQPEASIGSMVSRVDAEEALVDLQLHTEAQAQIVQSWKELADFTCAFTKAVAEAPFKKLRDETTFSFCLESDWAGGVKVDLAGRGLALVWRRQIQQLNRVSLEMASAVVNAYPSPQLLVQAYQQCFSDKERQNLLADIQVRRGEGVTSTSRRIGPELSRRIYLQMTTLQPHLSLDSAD

B1: MBP-RECQ4 (1-322) (domain or fragment, UniProt O94761 1-322)
chain: MERLRDVRERLQAWERAFRRQRGRRPSQDDVEAAPEETRALYREYRTLKRTTGQAGGGLRSSESLPAAAEEAPEPRCWGPHLNRAATKSPQSTPGRSRQGSVPDYGQRLKANLKGTLQAGPALGRRPWPLGRASSKASTPKPPGTGPVPSFAEKVSDEPPQLPEPQPRPGRLQHLQASLSQRLGSLDPGWLQRCHSEVPDFLGAPKACRPDLGSEESQLLIPGESAVLGPGAGSQGPEASAFQEVSIRVGSPQPSSSGGEKRRWNEEPWESPAQVQQESSQAGPPSEGAGAVAVEEDPPGEPVQAQPPQPCSSPSNPRYHGL
B2: MBP-RECQ4 (455-1208) (domain or fragment, UniProt O94761 455-1208)
chain: SLGPSGQLAETPAEVFQALEQLGHQAFRPGQERAVMRILSGISTLLVLPTGAGKSLCYQLPALLYSRRSPCLTLVVSPLLSLMDDQVSGLPPCLKAACIHSGMTRKQRESVLQKIRAAQVHVLMLTPEALVGAGGLPPAAQLPPVAFACIDEAHCLSQWSHNFRPCYLRVCKVLRERMGVHCFLGLTATATRRTASDVAQHLAVAEEPDLHGPAPVPTNLHLSVSMDRDTDQALLTLLQGKRFQNLDSIIIYCNRREDTERIAALLRTCLHAAWVPGSGGRAPKTTAEAYHAGMCSRERRRVQRAFMQGQLRVVVATVAFGMGLDRPDVRAVLHLGLPPSFESYVQAVGRAGRDGQPAHCHLFLQPQGEDLRELRRHVHADSTDFLAVKRLVQRVFPACTCTCTRPPSEQEGAVGGERPVPKYPPQEAEQLSHQAAPGPRRVCMGHERALPIQLTVQALDMPEEAIETLLCYLELHPHHWLELLATTYTHCRLNCPGGPAQLQALAHRCPPLAVCLAQQLPEDPGQGSSSVEFDMVKLVDSMGWELASVRRALCQLQWDHEPRTGVRRGTGVLVEFSELAFHLRSPGDLTAEEKDQICDFLYGRVQARERQALARLRRTFQAFHSVAFPSCGPCLEQQDEERSTRLKDLLGRYFEEEEGQEPGGMEDAQGPEPGQARLQDWEDQVRCDIRQFLSLRPEEKFSSRAVARIFHGIGSPCYPAQVYGQDRRFWRKYLHLSFHALVGLATEELLQVAR
B3: MBP-RECQ4 (1-400) Δ3 (domain or fragment, UniProt O94761 1-400)
chain: MERLRDVRERLQAWERAFRRQRGRRPSQDDVEAAPEETRALYREYRTLKRTTGQAGGGLRSSESLPAAAEEAPEPRCWGPHLNRAATKSPQSTPGRSRQGSVPDYGQRLKANLKGTLQAGPALGRRPWPLGRASSKASTPKPPGTGPVPSFAEKVSDEPPQLPEPQPRPGRLQHLQASLSQRLGSLDPGWLQRCHSEVPDFLGAPKACRPDLGSEESQLLIPGESAVLGPGAGSQGPEASAFQEVSIRVGSPQPSSSGGEKRRWNEEPWESPAQVQQESSQAGPPSEGAGAVAVEEDPPGEPVQAQPPQPCSSPSNPRYHGLSPSSQARAGKAEGTAPLHIFPRLARHDRGNLNMKQKHYVRGRALRSRLLRKQAWKQKWRKKGECFGGGGATVTTK

What follows are binders tested against T1, GST-MUS81-EME1 complex (assay: pull-down; purified GST-MUS81-EME1, GST-MUS81 or GST-MUS81 fragments (5 µg) incubated with MBP-tagged RECQ4 fragments (5 µg) and Glutathione Sepharose 4 Fast Flow beads in 1X K buffer with 150 mM KCl, 0.01% NP40, 1 mM DTT, 30 min, 4 °C; flow-through and bound fractions on SDS-PAGE, Coomassie blue; both purified).
In the case of B1, the binding is reported as “no binding (tested: 5 µg each)”. With B2 the binding was “no binding (tested: 5 µg each)”. With B3 the binding was “no binding (tested: 5 µg each)”.
